Experimental data taken from article PMC6848142.
Results are given in words; binding and its absence hold for the method and conditions named. Binding seen in cells or lysates may run through a third protein. Some binding calls cover weakened binding; strength is not graded here.

Chains of the proteins cited; added tags and fusions are not shown.
UniProt Q15836: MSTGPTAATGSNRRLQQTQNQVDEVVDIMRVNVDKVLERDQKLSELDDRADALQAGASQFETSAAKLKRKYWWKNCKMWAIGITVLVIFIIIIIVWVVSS
UniProt O00161: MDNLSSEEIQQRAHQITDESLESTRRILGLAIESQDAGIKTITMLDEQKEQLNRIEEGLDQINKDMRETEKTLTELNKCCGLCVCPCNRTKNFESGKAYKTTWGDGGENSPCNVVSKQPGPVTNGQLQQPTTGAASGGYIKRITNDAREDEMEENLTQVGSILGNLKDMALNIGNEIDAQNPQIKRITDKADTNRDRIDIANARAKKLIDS

Molecular target: VAMP3 (endogenous) (human (endogenous in H23, A549, CHL1)) (UniProt Q15836)
Experiment: co-IP; endogenous RAS and SNARE proteins from A549 lysate

“SNAP23 (endogenous) (from UniProt O00161 1-211)” was tested, and the binding was “binds”.
